In patent US7696245B2, “Fluorescent probe for zinc” (Sekisui Medical Co., Ltd., priority 2003, dated 2010):

Assay: Selectivity for zinc ions: fluorescence intensity in the presence of various metal ions
Format: physicochemical
Conditions: metal ions at high concentration (5 mM), 100 mM HEPES buffer (pH 7.5)
Method: Compounds 8, 13, 17, and 22 were used to evaluate selectivity for zinc ions. 1 μM of the compound was added in 100 mM HEPES buffer (pH 7.5) containing various metal ions (1 μM or 5 μM). The fluorescence intensity was measured at the excitation wavelength of 492 nm and the fluorescence wavelength of 514 nm for Compounds 8, 17, and 22, and the excitation wavelength of 492 nm and the fluorescence wavelength of 521 nm for Compound 13.

| Compound | increase in fluorescence intensity in the presence of sodium, potassium, calcium and magnesium ions |
| --- | --- |
| O=C(O)c1ccc(NCCNCc2ccccn2)cc1-c1c2ccc(=O)cc-2oc2cc(O)ccc12 [Compound 8] | absolutely no increase |
| O=C(O)c1ccc(NCCN(CCc2ccccn2)Cc2ccccn2)cc1-c1c2ccc(=O)cc-2oc2cc(O)ccc12 [Compound 13] | absolutely no increase |
| O=C(O)c1ccc(NCCN(CCc2ccccn2)CCc2ccccn2)cc1-c1c2ccc(=O)cc-2oc2cc(O)ccc12 [Compound 17] | absolutely no increase |
| Cc1cccc(CN(CCNc2ccc(C(=O)O)c(-c3c4ccc(=O)cc-4oc4cc(O)ccc34)c2)Cc2ccccn2)n1 [Compound 22] | absolutely no increase |
